Test results as given in paper PMC4627809.
These are yes or no findings as the source states them, for the method shown. For some of these results: In cells and extracts the contact can be indirect. Some entries that bind do so weakly or less than the wild type.

Chains of the proteins cited; added tags and fusions are not shown. Lines headed by an entry give the natural chain unless they say otherwise; changes in a name come on top. Residues count along the entry.
UniProt Q00613: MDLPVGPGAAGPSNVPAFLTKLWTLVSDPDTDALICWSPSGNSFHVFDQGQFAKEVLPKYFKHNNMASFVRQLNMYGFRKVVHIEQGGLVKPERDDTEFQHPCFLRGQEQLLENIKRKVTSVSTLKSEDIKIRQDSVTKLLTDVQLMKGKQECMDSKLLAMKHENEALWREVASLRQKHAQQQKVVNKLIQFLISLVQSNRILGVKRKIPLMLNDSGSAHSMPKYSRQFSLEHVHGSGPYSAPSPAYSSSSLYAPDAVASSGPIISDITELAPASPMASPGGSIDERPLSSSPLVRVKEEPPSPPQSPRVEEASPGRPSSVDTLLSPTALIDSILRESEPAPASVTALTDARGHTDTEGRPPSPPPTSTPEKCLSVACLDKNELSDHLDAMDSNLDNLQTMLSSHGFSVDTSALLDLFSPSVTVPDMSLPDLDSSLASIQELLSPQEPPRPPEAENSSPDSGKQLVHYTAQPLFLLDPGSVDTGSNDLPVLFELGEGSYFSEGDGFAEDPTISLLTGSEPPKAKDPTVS
UniProt P08581: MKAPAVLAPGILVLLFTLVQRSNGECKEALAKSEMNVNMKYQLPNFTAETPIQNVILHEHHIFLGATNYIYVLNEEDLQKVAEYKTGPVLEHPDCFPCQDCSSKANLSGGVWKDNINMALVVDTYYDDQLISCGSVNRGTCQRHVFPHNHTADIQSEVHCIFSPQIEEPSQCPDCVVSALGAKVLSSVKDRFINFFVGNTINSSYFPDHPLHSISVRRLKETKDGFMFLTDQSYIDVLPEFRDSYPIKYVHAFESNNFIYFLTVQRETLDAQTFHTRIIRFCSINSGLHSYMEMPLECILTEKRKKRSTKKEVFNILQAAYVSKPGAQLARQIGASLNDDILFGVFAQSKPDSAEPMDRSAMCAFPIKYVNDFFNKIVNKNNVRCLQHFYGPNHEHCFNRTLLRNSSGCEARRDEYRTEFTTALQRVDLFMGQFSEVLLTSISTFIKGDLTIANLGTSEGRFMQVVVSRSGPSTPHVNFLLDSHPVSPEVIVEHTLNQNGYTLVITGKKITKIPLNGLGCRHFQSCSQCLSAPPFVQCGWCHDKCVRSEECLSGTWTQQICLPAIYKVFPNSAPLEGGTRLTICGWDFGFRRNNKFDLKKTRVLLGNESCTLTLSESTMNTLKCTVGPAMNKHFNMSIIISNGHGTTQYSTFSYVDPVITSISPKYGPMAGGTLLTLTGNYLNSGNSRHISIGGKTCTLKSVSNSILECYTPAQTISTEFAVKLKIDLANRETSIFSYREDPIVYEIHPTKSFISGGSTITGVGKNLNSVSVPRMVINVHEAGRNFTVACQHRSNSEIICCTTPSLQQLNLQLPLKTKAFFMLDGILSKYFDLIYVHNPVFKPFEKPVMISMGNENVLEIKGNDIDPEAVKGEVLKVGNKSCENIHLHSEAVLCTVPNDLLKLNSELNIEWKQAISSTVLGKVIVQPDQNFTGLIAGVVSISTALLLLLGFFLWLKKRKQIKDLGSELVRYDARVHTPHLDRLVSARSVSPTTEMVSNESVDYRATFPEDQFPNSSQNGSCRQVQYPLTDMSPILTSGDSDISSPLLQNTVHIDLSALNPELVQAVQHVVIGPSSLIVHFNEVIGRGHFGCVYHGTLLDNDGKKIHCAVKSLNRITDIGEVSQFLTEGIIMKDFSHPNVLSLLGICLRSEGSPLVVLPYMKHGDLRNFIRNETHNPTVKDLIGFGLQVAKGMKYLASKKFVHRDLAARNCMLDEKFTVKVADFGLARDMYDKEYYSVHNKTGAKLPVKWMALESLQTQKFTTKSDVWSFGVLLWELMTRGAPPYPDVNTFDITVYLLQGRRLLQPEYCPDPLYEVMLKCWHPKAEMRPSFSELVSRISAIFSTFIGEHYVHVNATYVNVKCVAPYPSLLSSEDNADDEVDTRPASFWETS
NL-MET: residues 933-1390 of P08581

What was measured:
FLAG-HSP90β E42A (human) = FLAG-HSP90β E42A (human) (UniProt P08238); experiment: co-IP; HEK293 co-transfected with FLAG-HSP90 construct and client for 18 h; lysis in TGNET (50 mM Tris HCl pH 7.5, 5% glycerol, 100 mM NaCl, 2 mM EDTA, 0.5% Triton X-100); 700 μg lysate on anti-FLAG beads 2 h at 4°C; western blot for the client
[1] = molecular target: FLAG-HSP90β R392A (human) (UniProt P08238); experiment: as above
[2] = molecular target: FLAG-HSP90β wild type (human) (UniProt P08238); experiment: as above
FLAG-HSP90α D93A (human) = FLAG-HSP90α D93A (human) (UniProt P07900); experiment: as above
FLAG-HSP90α E47A (human) = FLAG-HSP90α E47A (human) (UniProt P07900); experiment: as above
[3] = molecular target: FLAG-HSP90α IL218/20AA (human) (UniProt P07900); experiment: as above
[4] = molecular target: FLAG-HSP90α R400A (human) (UniProt P07900); experiment: as above
[5] = molecular target: FLAG-HSP90α wild type (human) (UniProt P07900); experiment: as above
FLAG-HSP90β D88A (human) = FLAG-HSP90β D88A (human) (UniProt P08238); experiment: as above
[6] = molecular target: FLAG-HSP90β IL213/5AA (human) (UniProt P08238); experiment: as above
[7] = molecular target: FLAG-HSP90β wild type (human) (UniProt P08238); experiment: LUMIER; HEK293 in 96-well plates co-transfected with NanoLuc-client and 3XFLAG-HSP90α or β; TGNET lysate on anti-FLAG antibody-coated plate 2 h at 4°C; NanoLuc read-out divided by anti-FLAG-HRP read-out = relative interaction strength
[8] = molecular target: FLAG-HSP90α wild type (human) (UniProt P07900); experiment: as above

| Substance | binding (FLAG-HSP90β E42A (human)) | binding [1] | binding [2] | binding (FLAG-HSP90α D93A (human)) | binding (FLAG-HSP90α E47A (human)) | binding [3] | binding [4] | binding [5] | binding (FLAG-HSP90β D88A (human)) | binding [6] | binding [7] | binding [8] |
| --- | --- | --- | --- | --- | --- | --- | --- | --- | --- | --- | --- | --- |
| ERBB2 (from UniProt P04626 23-1255) | binds | binds | binds | – | – | – | – | – | – | – | – | – |
| HA-HIF1α (from UniProt Q16665 1-826) | binds | binds weakly | binds weakly | binds | binds | binds | binds weakly | binds weakly | binds | no binding | – | – |
| HA-HSF1 (from UniProt Q00613 1-529) | binds | binds weakly | binds weakly | – | – | – | – | – | binds weakly | binds weakly | – | – |
| HA-KEAP1 (from UniProt Q14145 1-624) | binds | binds | binds | binds | binds | binds | binds | binds | binds | binds | – | – |
| MET (from UniProt P08581 25-1390) | binds | binds | binds | binds | binds | binds | binds | binds | binds | binds | – | – |
| NL-ERBB2 (from UniProt P04626 636-1255) (domain or fragment) | – | – | – | – | – | – | – | – | – | – | binds | – |
| NL-HIF1α (from UniProt Q16665 1-826) | – | – | – | – | – | – | – | – | – | – | binds | – |
| NL-KEAP1 (from UniProt Q14145 1-624) | – | – | – | – | – | – | – | – | – | – | binds | – |
| NL-MET (from UniProt P08581-2 951-1408) (domain or fragment) | – | – | – | – | – | – | – | – | – | – | binds | binds |
